Experimental data: the supplement of paper PMC6411743
± gives the standard deviation of the averaged measurements. This is one part of the list.

Sequences of proteins named here, by UniProt entry; tags and fusion partners are left off. A change or cut given only in a name is not applied to a line headed by its entry.
UniProt Q7L5N1: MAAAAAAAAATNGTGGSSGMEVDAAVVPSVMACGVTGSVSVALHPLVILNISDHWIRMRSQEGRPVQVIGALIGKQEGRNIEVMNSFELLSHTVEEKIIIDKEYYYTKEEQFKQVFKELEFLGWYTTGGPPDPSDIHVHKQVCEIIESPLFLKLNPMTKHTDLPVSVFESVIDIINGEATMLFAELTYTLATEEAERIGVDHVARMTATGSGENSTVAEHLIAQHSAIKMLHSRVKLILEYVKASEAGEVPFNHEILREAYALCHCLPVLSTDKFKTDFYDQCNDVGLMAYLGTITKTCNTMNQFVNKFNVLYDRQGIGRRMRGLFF
UniProt Q8WV99: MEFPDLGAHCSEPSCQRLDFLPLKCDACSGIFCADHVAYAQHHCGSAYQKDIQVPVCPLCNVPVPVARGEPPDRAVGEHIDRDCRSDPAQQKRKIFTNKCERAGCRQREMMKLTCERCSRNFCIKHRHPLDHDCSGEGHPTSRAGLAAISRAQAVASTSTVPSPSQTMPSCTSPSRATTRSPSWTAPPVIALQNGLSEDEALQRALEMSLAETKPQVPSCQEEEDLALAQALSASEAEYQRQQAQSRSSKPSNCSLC
UniProt Q9UL40: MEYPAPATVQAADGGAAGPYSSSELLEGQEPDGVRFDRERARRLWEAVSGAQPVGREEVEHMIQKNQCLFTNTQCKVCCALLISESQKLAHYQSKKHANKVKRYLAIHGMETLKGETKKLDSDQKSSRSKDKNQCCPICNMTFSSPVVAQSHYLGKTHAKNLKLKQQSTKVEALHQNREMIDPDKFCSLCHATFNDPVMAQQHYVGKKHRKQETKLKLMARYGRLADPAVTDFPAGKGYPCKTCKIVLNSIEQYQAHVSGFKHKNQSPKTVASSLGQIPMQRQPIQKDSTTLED
UniProt P68366, whole entry: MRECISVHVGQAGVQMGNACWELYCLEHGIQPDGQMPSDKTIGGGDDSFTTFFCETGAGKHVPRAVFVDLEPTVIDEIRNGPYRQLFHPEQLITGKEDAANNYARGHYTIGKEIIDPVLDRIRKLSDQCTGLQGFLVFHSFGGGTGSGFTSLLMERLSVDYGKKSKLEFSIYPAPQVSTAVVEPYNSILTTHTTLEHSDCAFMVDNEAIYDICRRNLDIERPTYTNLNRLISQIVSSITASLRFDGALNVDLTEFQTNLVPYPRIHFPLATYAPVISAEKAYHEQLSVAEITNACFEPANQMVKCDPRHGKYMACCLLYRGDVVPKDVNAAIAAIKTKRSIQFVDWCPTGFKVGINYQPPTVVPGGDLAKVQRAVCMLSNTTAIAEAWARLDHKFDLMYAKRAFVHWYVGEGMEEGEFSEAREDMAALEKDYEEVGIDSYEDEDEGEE

Compound: Nc1nc2c(ncn2[C@@H]2O[C@H](COP(=O)(O)OP(=O)(O)OP(=O)(O)O)[C@@H](O)[C@H]2O)c(=O)[nH]1 [guanosine triphosphate]
Assay: NP40-soluble protein abundance relative to vehicle (solubility fold change) (ratio); higher = more soluble protein in presence of GTP
Procedure: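 Solubility proteome profiling in Jurkat crude lysate. Lysate was treated with Mg-GTP (0.1-10 mM) for 10 min at room temperature and 3 min at 37 °C, then solubilised with 0.8% NP40 and benzonase, followed by ultracentrifugation. Proteins were quantified by TMT10 LC-MS/MS; the value is the NP40-soluble abundance relative to the NP40-processed vehicle, from 3 independent experiments.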

Target	NP40-soluble protein abundance (concentration: 0.1mM)	NP40-soluble protein abundance (concentration: 0.5mM)	NP40-soluble protein abundance (concentration: 1mM)	NP40-soluble protein abundance (concentration: 2mM)	NP40-soluble protein abundance (concentration: 4mM)	NP40-soluble protein abundance (concentration: 6mM)	NP40-soluble protein abundance (concentration: 8mM)	NP40-soluble protein abundance (concentration: 10mM)
C9JQK5 and related entries (UniProt Q7L5N1)	1.06 ± 0.075	1.08 ± 0.1	1.01 ± 0.063	1.02 ± 0.097	0.99 ± 0.083	1.01 ± 0.11	0.959 ± 0.062	0.94 ± 0.056
A6NFX8 and related entries (UniProt Q9UKK9)	1.05 ± 0.036	1.04 ± 0.07	0.987 ± 0.036	0.994 ± 0.079	0.968 ± 0.046	0.942 ± 0.052	0.93 ± 0.018	0.93 ± 0.01
B4DEN4 and related entries (UniProt Q8WV99)	0.981 ± 0.052	1.01 ± 0.076	1.07 ± 0.1	0.998 ± 0.057	0.958 ± 0.078	1.03 ± 0.14	1.06 ± 0.15	1.05 ± 0.13
D6RJ07 and related entries (UniProt Q9UL40)	0.93 ± 0.064	0.87 ± 0.038	1.2 ± 0.063	1.17 ± 0.014	1.21 ± 0.094	1.21 ± 0.13	1.18 ± 0.18	1.26 ± 0.12
C9JJQ8 and related entries (UniProt P68366)	1.11 ± 0.033	0.96 ± 0.058	1.05 ± 0.059	0.984 ± 0.05	1.09 ± 0.026	1.02 ± 0.02	1.02 ± 0.032	0.992 ± 0.047
